Results from article PMC10366109.
These are yes or no findings as the source states them, for the method shown. In cells and extracts the contact can be indirect. Some binding calls cover weakened binding; strength is not graded here. Where a sequence is shown, tags or fusion partners need not be part of it.

Chains of the proteins cited; added tags and fusions are not shown.
UniProt Q9Z148: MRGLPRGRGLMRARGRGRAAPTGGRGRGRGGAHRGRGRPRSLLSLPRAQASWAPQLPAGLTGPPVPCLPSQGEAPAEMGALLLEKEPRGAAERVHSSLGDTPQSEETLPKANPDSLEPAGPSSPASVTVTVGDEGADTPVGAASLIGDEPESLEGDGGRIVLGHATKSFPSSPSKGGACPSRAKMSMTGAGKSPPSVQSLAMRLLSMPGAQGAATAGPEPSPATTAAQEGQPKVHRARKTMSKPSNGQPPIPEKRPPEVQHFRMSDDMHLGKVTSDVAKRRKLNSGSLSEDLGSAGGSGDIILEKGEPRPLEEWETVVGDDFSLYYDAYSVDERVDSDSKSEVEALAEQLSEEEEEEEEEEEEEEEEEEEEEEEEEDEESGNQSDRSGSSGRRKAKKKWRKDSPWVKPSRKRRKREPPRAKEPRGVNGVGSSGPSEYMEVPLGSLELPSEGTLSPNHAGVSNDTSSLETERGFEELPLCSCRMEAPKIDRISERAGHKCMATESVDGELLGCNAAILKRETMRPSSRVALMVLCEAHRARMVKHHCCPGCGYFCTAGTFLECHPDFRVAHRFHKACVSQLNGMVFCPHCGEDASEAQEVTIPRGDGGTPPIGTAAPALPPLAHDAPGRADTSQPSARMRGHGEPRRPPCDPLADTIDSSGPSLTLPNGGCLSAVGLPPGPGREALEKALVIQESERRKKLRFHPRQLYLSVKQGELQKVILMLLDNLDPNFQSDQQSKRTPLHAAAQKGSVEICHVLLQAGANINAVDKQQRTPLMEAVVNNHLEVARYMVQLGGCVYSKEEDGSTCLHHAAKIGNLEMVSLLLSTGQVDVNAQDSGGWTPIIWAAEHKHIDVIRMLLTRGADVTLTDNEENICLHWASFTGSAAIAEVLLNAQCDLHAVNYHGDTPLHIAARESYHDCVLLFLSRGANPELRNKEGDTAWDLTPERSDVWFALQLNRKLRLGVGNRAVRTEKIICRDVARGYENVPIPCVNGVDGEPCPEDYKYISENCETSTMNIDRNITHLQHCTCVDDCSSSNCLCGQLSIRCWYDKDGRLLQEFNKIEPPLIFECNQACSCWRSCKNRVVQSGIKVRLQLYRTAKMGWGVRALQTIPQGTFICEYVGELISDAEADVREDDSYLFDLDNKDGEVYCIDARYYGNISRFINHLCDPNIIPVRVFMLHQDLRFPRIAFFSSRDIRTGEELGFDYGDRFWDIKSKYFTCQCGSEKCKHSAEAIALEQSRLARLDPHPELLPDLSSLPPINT

Biological target: T1, Flag-ZFP296 (mouse) (UniProt E9Q6W4)
T1 sequence: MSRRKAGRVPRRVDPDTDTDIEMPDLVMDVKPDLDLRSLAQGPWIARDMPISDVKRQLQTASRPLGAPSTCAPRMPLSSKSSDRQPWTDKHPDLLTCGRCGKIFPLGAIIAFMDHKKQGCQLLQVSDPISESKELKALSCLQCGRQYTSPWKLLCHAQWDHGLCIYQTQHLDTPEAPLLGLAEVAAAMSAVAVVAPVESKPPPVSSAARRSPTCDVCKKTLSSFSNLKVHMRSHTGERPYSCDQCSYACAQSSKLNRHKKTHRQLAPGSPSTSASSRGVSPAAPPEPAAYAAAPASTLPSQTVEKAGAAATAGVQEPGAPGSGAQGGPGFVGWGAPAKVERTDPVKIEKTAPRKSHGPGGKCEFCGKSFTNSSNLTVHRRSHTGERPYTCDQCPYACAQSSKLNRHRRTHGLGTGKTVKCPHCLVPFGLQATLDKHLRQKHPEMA
Experiment: co-IP; Flag-ZFP296 or its deletion mutants coexpressed with Myc-G9a or Myc-GLP in HEK293T cells; nuclei extracted in 500 mM NaCl, 0.5% IGEPAL CA-630 with Cryonase nuclease, supernatant diluted 4-fold; magnetic beads with anti-Flag (or anti-Myc-tag) antibody, 3 h, 4 °C; western blot with anti-Myc-tag then anti-Flag-tag antibody

Myc-G9a (from UniProt Q9Z148 1-1263) (enzyme)
binding: binds
